Data: the supplement of paper PMC10849652
The other results are listed elsewhere or left out.

Amino acid sequences for entries named in this document (tags omitted). A change or cut given only in a name is not applied to a line headed by its entry.
UniProt Q9NWM8: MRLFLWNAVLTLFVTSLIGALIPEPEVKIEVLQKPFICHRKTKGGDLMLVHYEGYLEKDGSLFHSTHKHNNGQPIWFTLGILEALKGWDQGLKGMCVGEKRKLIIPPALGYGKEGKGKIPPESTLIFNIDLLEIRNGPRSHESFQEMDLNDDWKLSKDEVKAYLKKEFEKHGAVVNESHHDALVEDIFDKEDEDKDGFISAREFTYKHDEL
UniProt Q96IG2: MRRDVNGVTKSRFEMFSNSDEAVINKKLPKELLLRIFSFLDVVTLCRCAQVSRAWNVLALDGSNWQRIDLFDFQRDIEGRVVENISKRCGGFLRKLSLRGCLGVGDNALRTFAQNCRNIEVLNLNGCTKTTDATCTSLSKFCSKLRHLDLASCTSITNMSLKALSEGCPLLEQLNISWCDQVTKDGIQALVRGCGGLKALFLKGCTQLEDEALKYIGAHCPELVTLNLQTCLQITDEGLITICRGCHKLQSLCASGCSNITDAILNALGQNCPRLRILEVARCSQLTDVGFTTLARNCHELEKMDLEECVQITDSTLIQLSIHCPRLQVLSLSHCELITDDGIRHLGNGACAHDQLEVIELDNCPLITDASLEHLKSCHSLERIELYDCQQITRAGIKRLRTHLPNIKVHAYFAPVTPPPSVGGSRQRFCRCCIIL
UniProt Q5JUQ0: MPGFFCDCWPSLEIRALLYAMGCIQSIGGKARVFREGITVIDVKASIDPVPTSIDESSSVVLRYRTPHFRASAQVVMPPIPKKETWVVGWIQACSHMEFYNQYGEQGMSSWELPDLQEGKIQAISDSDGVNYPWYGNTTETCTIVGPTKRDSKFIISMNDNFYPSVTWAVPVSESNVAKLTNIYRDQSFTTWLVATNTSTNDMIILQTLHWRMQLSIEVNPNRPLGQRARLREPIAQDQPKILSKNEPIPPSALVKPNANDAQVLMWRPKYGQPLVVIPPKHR
UniProt P07954: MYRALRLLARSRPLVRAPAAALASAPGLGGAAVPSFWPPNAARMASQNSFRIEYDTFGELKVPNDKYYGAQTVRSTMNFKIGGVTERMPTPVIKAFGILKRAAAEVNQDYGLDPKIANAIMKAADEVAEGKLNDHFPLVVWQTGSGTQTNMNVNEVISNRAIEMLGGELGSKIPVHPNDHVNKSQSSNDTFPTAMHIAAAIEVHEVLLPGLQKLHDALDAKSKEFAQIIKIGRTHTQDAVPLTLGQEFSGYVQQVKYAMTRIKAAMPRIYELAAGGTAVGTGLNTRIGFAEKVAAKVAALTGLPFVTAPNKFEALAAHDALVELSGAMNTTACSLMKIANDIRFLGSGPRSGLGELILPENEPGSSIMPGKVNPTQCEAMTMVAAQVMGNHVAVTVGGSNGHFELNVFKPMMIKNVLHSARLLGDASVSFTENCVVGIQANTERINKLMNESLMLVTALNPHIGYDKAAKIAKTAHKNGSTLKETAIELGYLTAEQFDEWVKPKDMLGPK
UniProt Q9Y285: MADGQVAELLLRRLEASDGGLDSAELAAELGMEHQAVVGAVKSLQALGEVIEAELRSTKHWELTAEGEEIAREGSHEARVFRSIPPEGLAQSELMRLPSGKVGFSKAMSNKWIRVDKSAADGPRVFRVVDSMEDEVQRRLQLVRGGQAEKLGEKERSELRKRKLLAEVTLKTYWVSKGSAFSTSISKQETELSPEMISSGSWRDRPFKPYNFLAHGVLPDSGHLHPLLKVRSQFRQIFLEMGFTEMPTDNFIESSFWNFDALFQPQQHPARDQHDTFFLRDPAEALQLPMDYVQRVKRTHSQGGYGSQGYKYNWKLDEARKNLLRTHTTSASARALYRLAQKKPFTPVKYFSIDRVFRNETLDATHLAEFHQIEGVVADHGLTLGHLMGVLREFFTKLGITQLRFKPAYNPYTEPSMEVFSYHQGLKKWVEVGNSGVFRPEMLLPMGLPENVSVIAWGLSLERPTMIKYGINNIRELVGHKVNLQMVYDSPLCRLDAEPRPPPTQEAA
UniProt O75369, whole entry, looked up: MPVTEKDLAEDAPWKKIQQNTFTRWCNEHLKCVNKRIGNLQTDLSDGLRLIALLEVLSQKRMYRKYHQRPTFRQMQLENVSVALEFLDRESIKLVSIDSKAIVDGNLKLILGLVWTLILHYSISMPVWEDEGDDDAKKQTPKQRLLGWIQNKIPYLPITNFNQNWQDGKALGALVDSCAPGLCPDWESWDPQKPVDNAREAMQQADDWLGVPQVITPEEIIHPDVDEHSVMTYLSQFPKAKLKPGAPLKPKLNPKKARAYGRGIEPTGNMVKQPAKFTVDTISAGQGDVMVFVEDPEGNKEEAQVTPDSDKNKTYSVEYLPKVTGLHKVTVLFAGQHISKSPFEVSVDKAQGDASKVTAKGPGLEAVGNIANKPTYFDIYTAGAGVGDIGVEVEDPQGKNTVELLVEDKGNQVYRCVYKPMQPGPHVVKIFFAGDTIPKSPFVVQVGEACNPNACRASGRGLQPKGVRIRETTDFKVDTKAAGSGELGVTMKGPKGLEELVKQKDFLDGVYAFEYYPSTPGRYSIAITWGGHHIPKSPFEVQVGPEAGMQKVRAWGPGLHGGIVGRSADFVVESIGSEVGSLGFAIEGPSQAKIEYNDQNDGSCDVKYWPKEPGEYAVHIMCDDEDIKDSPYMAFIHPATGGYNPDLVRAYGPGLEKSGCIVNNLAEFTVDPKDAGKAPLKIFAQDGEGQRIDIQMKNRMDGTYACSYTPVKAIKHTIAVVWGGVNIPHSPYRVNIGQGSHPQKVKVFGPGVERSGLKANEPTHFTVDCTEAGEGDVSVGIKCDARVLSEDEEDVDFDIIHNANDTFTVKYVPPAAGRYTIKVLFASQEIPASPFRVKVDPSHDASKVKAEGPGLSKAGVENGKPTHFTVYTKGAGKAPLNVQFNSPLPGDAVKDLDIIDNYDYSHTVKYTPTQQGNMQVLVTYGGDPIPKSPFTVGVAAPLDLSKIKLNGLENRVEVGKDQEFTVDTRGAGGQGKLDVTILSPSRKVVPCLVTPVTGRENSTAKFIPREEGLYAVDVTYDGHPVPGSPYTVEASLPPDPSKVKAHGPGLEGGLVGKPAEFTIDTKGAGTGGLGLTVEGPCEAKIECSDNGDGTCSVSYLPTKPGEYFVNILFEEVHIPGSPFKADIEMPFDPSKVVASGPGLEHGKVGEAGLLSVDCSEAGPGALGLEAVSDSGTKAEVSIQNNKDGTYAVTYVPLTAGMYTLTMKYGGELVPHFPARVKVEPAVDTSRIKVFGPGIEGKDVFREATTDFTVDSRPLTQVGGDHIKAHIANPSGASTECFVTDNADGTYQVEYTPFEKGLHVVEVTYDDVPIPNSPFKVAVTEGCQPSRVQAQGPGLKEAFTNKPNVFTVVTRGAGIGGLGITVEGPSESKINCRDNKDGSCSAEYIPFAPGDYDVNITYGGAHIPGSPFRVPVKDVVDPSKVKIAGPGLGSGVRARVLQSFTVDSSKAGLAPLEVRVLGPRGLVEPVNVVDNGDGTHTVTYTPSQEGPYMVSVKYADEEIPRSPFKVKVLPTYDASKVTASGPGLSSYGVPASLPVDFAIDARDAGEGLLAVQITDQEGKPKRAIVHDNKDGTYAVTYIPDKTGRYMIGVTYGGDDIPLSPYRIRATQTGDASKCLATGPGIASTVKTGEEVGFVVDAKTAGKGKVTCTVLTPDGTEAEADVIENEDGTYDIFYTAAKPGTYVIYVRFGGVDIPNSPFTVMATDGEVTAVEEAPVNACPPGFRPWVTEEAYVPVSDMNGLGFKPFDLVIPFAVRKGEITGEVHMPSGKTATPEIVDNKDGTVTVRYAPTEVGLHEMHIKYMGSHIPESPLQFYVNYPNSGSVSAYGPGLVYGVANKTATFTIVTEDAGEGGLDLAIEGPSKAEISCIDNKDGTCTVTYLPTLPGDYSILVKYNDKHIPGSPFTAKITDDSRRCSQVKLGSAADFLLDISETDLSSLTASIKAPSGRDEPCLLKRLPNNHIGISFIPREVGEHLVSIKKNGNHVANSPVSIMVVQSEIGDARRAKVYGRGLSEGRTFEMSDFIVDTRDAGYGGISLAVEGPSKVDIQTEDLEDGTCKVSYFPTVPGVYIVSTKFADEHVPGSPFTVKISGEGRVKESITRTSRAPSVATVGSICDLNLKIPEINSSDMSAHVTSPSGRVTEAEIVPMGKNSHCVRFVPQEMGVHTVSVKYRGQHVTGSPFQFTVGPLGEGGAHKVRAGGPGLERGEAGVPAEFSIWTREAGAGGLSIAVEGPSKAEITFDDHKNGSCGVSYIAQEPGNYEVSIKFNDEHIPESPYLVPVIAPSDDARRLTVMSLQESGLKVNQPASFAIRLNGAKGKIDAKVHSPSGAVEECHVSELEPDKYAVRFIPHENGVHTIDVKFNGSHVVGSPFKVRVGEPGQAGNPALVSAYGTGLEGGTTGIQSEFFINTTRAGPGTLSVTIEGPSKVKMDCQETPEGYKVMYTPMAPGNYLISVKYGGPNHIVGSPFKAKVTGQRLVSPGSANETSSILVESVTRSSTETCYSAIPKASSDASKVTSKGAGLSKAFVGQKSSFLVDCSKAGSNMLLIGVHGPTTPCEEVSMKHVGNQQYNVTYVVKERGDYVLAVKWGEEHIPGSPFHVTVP
UniProt P31995: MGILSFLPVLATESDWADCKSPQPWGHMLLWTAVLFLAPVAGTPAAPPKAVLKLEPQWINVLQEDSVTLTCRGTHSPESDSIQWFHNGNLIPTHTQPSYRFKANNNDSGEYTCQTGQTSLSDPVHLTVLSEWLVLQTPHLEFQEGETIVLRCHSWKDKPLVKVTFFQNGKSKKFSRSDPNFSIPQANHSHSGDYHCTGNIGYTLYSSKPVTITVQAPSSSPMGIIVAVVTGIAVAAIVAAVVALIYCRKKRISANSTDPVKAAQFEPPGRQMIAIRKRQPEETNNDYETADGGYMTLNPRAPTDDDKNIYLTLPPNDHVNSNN
UniProt O95684: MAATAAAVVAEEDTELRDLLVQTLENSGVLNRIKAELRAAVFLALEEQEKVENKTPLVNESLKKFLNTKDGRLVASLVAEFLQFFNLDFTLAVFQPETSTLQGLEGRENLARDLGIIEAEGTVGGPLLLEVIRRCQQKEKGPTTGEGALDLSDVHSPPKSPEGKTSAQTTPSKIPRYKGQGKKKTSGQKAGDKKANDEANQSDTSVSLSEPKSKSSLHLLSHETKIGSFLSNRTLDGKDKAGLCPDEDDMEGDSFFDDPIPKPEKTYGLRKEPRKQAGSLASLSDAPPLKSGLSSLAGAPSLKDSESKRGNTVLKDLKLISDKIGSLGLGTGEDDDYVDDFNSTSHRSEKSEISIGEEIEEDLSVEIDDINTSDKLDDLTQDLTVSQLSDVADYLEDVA
UniProt P62942, whole entry, looked up: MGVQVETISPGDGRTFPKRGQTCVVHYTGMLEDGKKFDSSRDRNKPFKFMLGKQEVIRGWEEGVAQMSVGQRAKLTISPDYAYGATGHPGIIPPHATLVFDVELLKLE
UniProt Q0JRZ9: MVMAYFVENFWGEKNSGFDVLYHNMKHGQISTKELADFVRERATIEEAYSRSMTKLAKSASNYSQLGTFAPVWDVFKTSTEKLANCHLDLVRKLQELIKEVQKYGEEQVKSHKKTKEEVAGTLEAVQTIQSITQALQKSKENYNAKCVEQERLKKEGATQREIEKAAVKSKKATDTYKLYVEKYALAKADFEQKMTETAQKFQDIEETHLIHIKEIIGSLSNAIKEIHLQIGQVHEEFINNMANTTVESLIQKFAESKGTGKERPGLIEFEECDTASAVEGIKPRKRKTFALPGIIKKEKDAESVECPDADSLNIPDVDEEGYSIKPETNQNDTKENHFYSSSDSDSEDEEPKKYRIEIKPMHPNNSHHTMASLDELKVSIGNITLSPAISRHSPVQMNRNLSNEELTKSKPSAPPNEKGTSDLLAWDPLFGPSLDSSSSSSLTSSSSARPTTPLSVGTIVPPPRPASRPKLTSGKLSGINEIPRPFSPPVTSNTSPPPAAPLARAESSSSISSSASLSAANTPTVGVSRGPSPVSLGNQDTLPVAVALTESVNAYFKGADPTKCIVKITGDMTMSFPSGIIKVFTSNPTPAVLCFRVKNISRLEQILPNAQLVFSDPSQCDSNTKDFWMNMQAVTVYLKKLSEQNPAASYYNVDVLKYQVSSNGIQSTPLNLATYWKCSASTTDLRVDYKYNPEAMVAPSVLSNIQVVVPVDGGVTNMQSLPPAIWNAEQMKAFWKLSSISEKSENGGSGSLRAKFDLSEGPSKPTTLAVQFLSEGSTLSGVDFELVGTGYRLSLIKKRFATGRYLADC
UniProt Q14192: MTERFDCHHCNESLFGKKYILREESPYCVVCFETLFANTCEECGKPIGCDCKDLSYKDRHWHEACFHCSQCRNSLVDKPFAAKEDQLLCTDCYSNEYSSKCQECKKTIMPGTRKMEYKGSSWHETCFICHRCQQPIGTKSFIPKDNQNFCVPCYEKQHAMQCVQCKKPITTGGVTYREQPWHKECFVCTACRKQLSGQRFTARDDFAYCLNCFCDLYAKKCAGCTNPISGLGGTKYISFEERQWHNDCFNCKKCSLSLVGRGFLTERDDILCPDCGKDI
UniProt Q9Y421: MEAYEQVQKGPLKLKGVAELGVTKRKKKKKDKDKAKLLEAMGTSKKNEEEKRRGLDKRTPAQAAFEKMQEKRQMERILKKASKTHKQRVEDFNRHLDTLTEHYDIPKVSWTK

Columns and labels:
Assay in all cases: log2 fold change, soluble protein after heating vs DMSO (PISA); higher = thermal stabilisation; K562 cells, 10 uM, 30 min; active = over 0.2 and 3.5 SD of the protein, either way, in both replicates (recomputed)
[1] = compound: CC[C@@H]1C(=O)N(C)c2cnc(Nc3ccc(C(=O)NC4CCN(C)CC4)cc3OC)nc2N1C1CCCC1
Summary of the method: (§1)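 Soluble protein was defined as the supernatant after 21,000xg for 90 min. It came from K562 cells at 2×10^6 cells/mL given 10 μM compound for 30 min, heated in aliquots for 3 min across 48°C-58°C, pooled, and extracted in PBS with 0.5% NP-40 at 4°C, and was quantified by TMTpro 16plex LC-MS/MS with equalised channel sums. Thermal stability against control samples, from duplicates, is reported as log2 fold change.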

volasertib = compound: CC[C@@H]1C(=O)N(C)c2cnc(Nc3ccc(C(=O)N[C@H]4CC[C@H](N5CCN(CC6CC6)CC5)CC4)cc3OC)nc2N1C(C)C [volasertib]
Summary of the method: as §1

[2] = compound: CC[C@H](C)N1C=C(C2=C(C=C(C=C21)C3=CN=C(C=C3)N4CCNCC4)C(=O)NCC5=C(C=C(NC5=O)C)C)C
Summary of the method: as §1

epoxomicin = compound: CC[C@H](C)[C@@H](C(=O)N[C@@H]([C@@H](C)O)C(=O)N[C@@H](CC(C)C)C(=O)[C@]1(CO1)C)NC(=O)[C@H]([C@@H](C)CC)N(C)C(=O)C [epoxomicin]
Summary of the method: as §1

[3] = compound: CCn1c(C(=O)N(C2CC2)C2CC2)cc2c3c(ncn3C)c(Nc3cc(C)n(C)n3)nc21
Summary of the method: as §1

[4] = compound: CCn1cc(-c2ccnc3[nH]c(-c4cccc(CN(C)C)c4)cc23)c(-c2ccc(NC(=O)N(C)C)cc2)n1
Summary of the method: as §1

[5] = compound: CN(C)CC(=O)Nc1ccc2[nH]c(=O)c3ccccc3c2c1
Summary of the method: as §1

rosiglitazone = compound: CN(CCOC1=CC=C(C=C1)C[C@H]2C(=O)NC(=O)S2)C3=CC=CC=N3 (racemic) [rosiglitazone]
Summary of the method: as §1

[6] = compound: CN1C2=C(C3=C1C(=O)N(N=C3)CC4=CC(=CC=C4)N)SC(=C2)S(=O)C
Summary of the method: as §1

[7] = compound: CN1CCC(CNc2ccc3ncc(-c4cccc(OC(F)(F)F)c4)n3n2)CC1
Summary of the method: as §1

saracatinib = compound: CN1CCN(CCOc2cc(OC3CCOCC3)c3c(Nc4c(Cl)ccc5c4OCO5)ncnc3c2)CC1 [saracatinib]
Summary of the method: as §1

sotrastaurin = compound: CN1CCN(c2nc(C3=C(c4c[nH]c5ccccc45)C(=O)NC3=O)c3ccccc3n2)CC1 [sotrastaurin]
Summary of the method: as §1

alvocidib = compound: CN1CC[C@H](c2c(O)cc(O)c3c(=O)cc(-c4ccccc4Cl)oc23)[C@H](O)C1 [alvocidib]
Summary of the method: as §1

Tubastatin A = compound: CN1CCc2c(c3ccccc3n2Cc2ccc(C(=O)NO)cc2)C1 [Tubastatin A]
Summary of the method: as §1

[8] = compound: CNC(=O)C1=CC=CC=C1NC2=NC(=NC=C2Cl)NC3=C(C=C(C=C3)N4CCOCC4)OC
Summary of the method: as §1

defactinib = compound: CNC(=O)c1ccc(Nc2ncc(C(F)(F)F)c(NCc3nccnc3N(C)S(C)(=O)=O)n2)cc1 [defactinib]
Summary of the method: as §1

rucaparib = compound: CNCc1ccc(-c2[nH]c3cc(F)cc4c3c2CCNC4=O)cc1 [rucaparib]
Summary of the method: as §1

[9] = compound: CNc1nc(-c2ccc3c(N)n[nH]c3c2)cc(N2C[C@@H](C(=O)NC3CCCCC3)CC[C@H]2C)n1
Summary of the method: as §1

encorafenib = compound: COC(=O)N[C@@H](C)CNc1nccc(-c2cn(C(C)C)nc2-c2cc(Cl)cc(NS(C)(=O)=O)c2F)n1 [encorafenib]
Summary of the method: as §1

[10] = compound: COC(=O)[C@H](CCSC)NC(=O)C1=C(C=C(C=C1)NC[C@H](CS)N)C2=CC=CC=C2
Summary of the method: as §1

Measured: log2 fold change

FKBP14 (UniProt Q9NWM8)
inactive: [1] -0.04 | volasertib 0.12 | [2] 0.054 | epoxomicin -0.01 | [3] 0.045 | [4] -0.032 | [5] 0.036 | rosiglitazone 0.038 | [6] -0.219 | [7] 0.121 | saracatinib -0.051 | sotrastaurin 0.072 | alvocidib -0.056 | Tubastatin A 0.018 | [8] -0.038 | defactinib -0.026 | rucaparib 0.063 | [9] 0.104 | encorafenib 0.009 | [10] -0.067

FBXL20 (UniProt Q96IG2)
inactive: [1] 0.054 | volasertib 0.008 | [2] 0.047 | epoxomicin -0.002 | [3] -0.047 | [4] -0.119 | [5] -0.011 | rosiglitazone 0.042 | [6] -0.024 | [7] 0.042 | saracatinib 0.077 | sotrastaurin -0.073 | alvocidib 0.031 | Tubastatin A 0 | [8] -0.019 | defactinib 0.028 | rucaparib -0.009 | [9] 0.118 | encorafenib 0.003 | [10] 0.003

FAM78A (UniProt Q5JUQ0)
inactive: [1] 0.015 | volasertib -0.159 | [2] -0.027 | epoxomicin -0.02 | [3] 0.053 | [4] -0.081 | [5] -0.044 | rosiglitazone 0.057 | [6] 0.094 | [7] 0.089 | saracatinib -0.185 | sotrastaurin 0.041 | alvocidib -0.054 | Tubastatin A 0.014 | [8] 0.008 | defactinib 0.048 | rucaparib 0.031 | [9] -0.096 | encorafenib 0.162 | [10] -0.068

FH (UniProt P07954)
inactive: [1] 0.019 | volasertib 0.134 | [2] 0.021 | epoxomicin 0.035 | [3] 0.007 | [4] -0.107 | [5] 0.01 | rosiglitazone 0.067 | [6] -0.103 | [7] 0.007 | saracatinib -0.015 | sotrastaurin 0.01 | alvocidib -0.049 | Tubastatin A 0.004 | [8] 0.023 | defactinib -0.022 | rucaparib -0.05 | [9] 0.005 | encorafenib -0.012 | [10] 0.007

FARSA (UniProt Q9Y285)
inactive: [1] -0.005 | volasertib -0.111 | [2] 0.064 | epoxomicin -0.024 | [3] -0.004 | [4] -0.054 | [5] 0.042 | rosiglitazone 0.04 | [6] 0.005 | [7] 0.023 | saracatinib -0.007 | sotrastaurin 0.013 | alvocidib -0.056 | Tubastatin A -0.012 | [8] 0.045 | defactinib -0.057 | rucaparib 0.073 | [9] 0.062 | encorafenib 0.036 | [10] -0.027

FLNB isoform 8 (UniProt O75369)
inactive: [1] -0.047 | volasertib -0.09 | [2] 0.021 | epoxomicin 0.043 | [3] -0.028 | [4] -0.006 | [5] 0.013 | rosiglitazone 0.023 | [6] -0.043 | [7] -0.018 | saracatinib -0.002 | sotrastaurin -0.018 | alvocidib -0.029 | Tubastatin A -0.002 | [8] 0.057 | defactinib -0.045 | rucaparib -0.01 | [9] -0.035 | encorafenib -0.007 | [10] -0.007

FCSK isoform 2 (UniProt Q8N0W3)
inactive: [1] 0.014 | volasertib 0.043 | [2] -0.007 | epoxomicin 0.031 | [3] 0.006 | [4] -0.029 | [5] -0.008 | rosiglitazone -0.034 | [6] -0.023 | [7] 0.003 | saracatinib 0.074 | sotrastaurin 0.009 | alvocidib -0.031 | Tubastatin A 0.002 | [8] -0.018 | defactinib -0.026 | rucaparib 0.007 | [9] -0.047 | encorafenib -0.021 | [10] -0.028

FARSB (UniProt Q9NSD9)
inactive: [1] -0.017 | volasertib -0.111 | [2] 0.033 | epoxomicin -0.017 | [3] -0.019 | [4] -0.019 | [5] 0 | rosiglitazone 0.01 | [6] -0.031 | [7] -0.016 | saracatinib -0.061 | sotrastaurin -0.025 | alvocidib -0.017 | Tubastatin A -0.008 | [8] 0.009 | defactinib -0.039 | rucaparib 0.019 | [9] 0.031 | encorafenib 0.032 | [10] -0.029

FCGR2C (UniProt P31995)
inactive: [1] 0.102 | volasertib 0.052 | [2] -0.05 | epoxomicin -0.032 | [3] 0.006 | [4] -0.033 | [5] -0.114 | rosiglitazone -0.041 | [6] -0.122 | [7] 0.203 | saracatinib 0.071 | sotrastaurin 0.04 | alvocidib -0.02 | Tubastatin A 0.03 | [8] -0.038 | defactinib -0.003 | rucaparib -0.011 | [9] 0.084 | encorafenib -0.019 | [10] -0.001

FLOT1 (UniProt O75955)
inactive: [1] 0.092 | volasertib 0.235 | [2] -0.037 | epoxomicin 0.061 | [3] -0.007 | [4] 0.153 | [5] -0.112 | rosiglitazone -0.059 | [6] 0.33 | [7] 0.433 | saracatinib -0.262 | sotrastaurin -0.144 | alvocidib 0.18 | Tubastatin A 0.172 | [8] -0.046 | defactinib 0.049 | rucaparib 0.279 | [9] 0.204 | encorafenib 0.168 | [10] -0.086

FGFR1OP (UniProt O95684)
inactive: [1] 0.017 | volasertib -0.046 | [2] 0.001 | epoxomicin -0.001 | [3] -0.008 | [4] 0.012 | [5] 0.002 | rosiglitazone 0.023 | [6] -0.051 | [7] 0.087 | saracatinib 0.036 | sotrastaurin -0.024 | alvocidib -0.059 | Tubastatin A 0.054 | [8] 0.004 | defactinib -0.032 | rucaparib 0.017 | [9] -0.01 | encorafenib -0.008 | [10] -0.004

FKBP1A (UniProt P62942)
inactive: [1] -0.008 | volasertib -0.006 | [2] 0.054 | epoxomicin 0.008 | [3] -0.187 | [4] -0.209 | [5] 0.065 | rosiglitazone 0.061 | [6] -0.158 | [7] -0.064 | saracatinib -0.033 | sotrastaurin 0.044 | alvocidib -0.243 | Tubastatin A 0.087 | [8] -0.005 | defactinib -0.057 | rucaparib 0.036 | [9] 0.049 | encorafenib -0.016 | [10] -0.113

FCHO2 (UniProt Q0JRZ9)
inactive: [1] 0 | volasertib -0.05 | [2] 0.172 | epoxomicin 0.216 | [3] -0.027 | [4] -0.134 | [5] 0.01 | rosiglitazone 0.006 | [6] -0.028 | [7] -0.024 | saracatinib 0.081 | sotrastaurin -0.045 | alvocidib -0.171 | Tubastatin A 0.049 | [8] 0.051 | defactinib -0.05 | rucaparib -0.056 | [9] 0.069 | encorafenib -0.033 | [10] 0.04

FHL2 (UniProt Q14192)
inactive: [1] 0.016 | volasertib -0.029 | [2] -0.002 | epoxomicin 0.006 | [3] -0.013 | [4] -0.008 | [5] -0.055 | rosiglitazone 0.001 | [6] -0.054 | [7] 0.012 | saracatinib 0.053 | sotrastaurin 0.039 | alvocidib 0.045 | Tubastatin A -0.052 | [8] 0 | defactinib -0.001 | rucaparib -0.033 | [9] -0.082 | encorafenib -0.01 | [10] 0.021

Random excerpt: 2 entries already listed
FH (UniProt P07954)
inactive: [1] 0.019 | volasertib 0.134 | [2] 0.021 | epoxomicin 0.035 | [3] 0.007 | [4] -0.107 | [5] 0.01 | rosiglitazone 0.067 | [6] -0.103 | [7] 0.007 | saracatinib -0.015 | sotrastaurin 0.01 | alvocidib -0.049 | Tubastatin A 0.004 | [8] 0.023 | defactinib -0.022 | rucaparib -0.05 | [9] 0.005 | encorafenib -0.012 | [10] 0.007

FBXL20 (UniProt Q96IG2)
inactive: [1] 0.054 | volasertib 0.008 | [2] 0.047 | epoxomicin -0.002 | [3] -0.047 | [4] -0.119 | [5] -0.011 | rosiglitazone 0.042 | [6] -0.024 | [7] 0.042 | saracatinib 0.077 | sotrastaurin -0.073 | alvocidib 0.031 | Tubastatin A 0 | [8] -0.019 | defactinib 0.028 | rucaparib -0.009 | [9] 0.118 | encorafenib 0.003 | [10] 0.003

Remaining list, next part:

FBXO5 (UniProt Q9UKT4)
inactive: [1] -0.005 | volasertib -0.145 | [2] -0.004 | epoxomicin 0.154 | [3] 0 | [4] -0.063 | [5] -0.045 | rosiglitazone 0.046 | [6] -0.016 | [7] -0.031 | saracatinib 0.099 | sotrastaurin -0.022 | alvocidib -0.063 | Tubastatin A 0.105 | [8] 0.011 | defactinib -0.027 | rucaparib -0.044 | [9] -0.028 | encorafenib 0.013 | [10] 0.063

FAM32A (UniProt Q9Y421)
inactive: [1] 0.136 | volasertib 0.194 | [2] -0.172 | epoxomicin -0.055 | [3] 0.004 | [4] 0.154 | [5] -0.048 | rosiglitazone -0.009 | [6] 0.174 | [7] 0.13 | saracatinib 0.028 | sotrastaurin -0.155 | alvocidib 0.246 | Tubastatin A 0.069 | [8] 0.005 | defactinib 0.211 | rucaparib 0.124 | [9] -0.003 | encorafenib 0.032 | [10] -0.004
